Reference: PubChem BioAssay AID248 (DTP/NCI, 2004)
The list does not hold the whole screen: its compounds were picked by chemical class. Not every dose and run of a compound is shown. T/C is the treated group as % of the vehicle group. For survival time, this PubChem deposit counts one and a half times the control or more as active, and values a quarter to a half above the control carry no call in these data; other NCI protocols may use other cut-offs. Some T/C values are marked as having no survivor count here; that says nothing about deaths at the dose. Schedules are NCI's codes, taken here to give the interval after Q, in days (D) or hours (H), and the number of doses after X. Some entries hold several experiments; the results are listed from low to high. Some schedule codes hold Z or #, which are not explained here.

Test system: L1210 leukemia ip in BDF1 mice, survival T/C
Test: NCI In Vivo Anticancer Drug Screen. Data for tumor model L1210 Leukemia (intraperitoneal) in B6D2F1 (BDF1) mice
Settings: T/C endpoint: mean survival time, higher T/C = longer survival
[1] = dose: 3.13 mg/kg/injection, schedule: Q01DX009 (ip), vehicle: Klucel (hydroxypropylcellulose) (HPC)
[2] = dose: 6.25 mg/kg/injection, schedule: Q01DX009 (ip), vehicle: Klucel (hydroxypropylcellulose) (HPC)
[3] = dose: 100.0 mg/kg/injection, schedule: Q04DX003 (ip), vehicle: saline

## O=C(O)C1CCC(N(CCCl)CCCl)CC1 (stereo not drawn)
dose: 3.0 mg/kg/injection, schedule: Q01DX001 (ip), vehicle: saline
  T/C: 128 % of control [survivor count not shown]
dose: 4.4 mg/kg/injection, schedule: Q01DX001 (ip), vehicle: saline
  T/C: 150 % of control [survivor count not shown]
dose: 6.7 mg/kg/injection, schedule: Q01DX001 (ip), vehicle: saline
  T/C: 136 % of control [survivor count not shown]

## O=P(Cl)(Cl)N(CCF)CCF
dose: 1.25 mg/kg/injection, schedule: Q01DX Z (ip), vehicle: saline
  T/C: 93 % of control [survivor count not shown]
dose: 2.5 mg/kg/injection, schedule: Q01DX Z (ip), vehicle: saline
  T/C: 101 % of control [survivor count not shown]
dose: 5.0 mg/kg/injection, schedule: Q01DX Z (ip), vehicle: saline
  T/C: 115 % of control [survivor count not shown]

## O=Cc1cc(N(CCCl)CCCl)ccc1O
dose: 5.0 mg/kg/injection, schedule: Q01DX015 (ip), vehicle: carboxymethylcellulose (CMC)
  T/C: 104 [survivor count not shown] and 121 % of control [survivor count not shown]
dose: 9.0 mg/kg/injection, schedule: Q01DX015 (ip), vehicle: carboxymethylcellulose (CMC)
  T/C: 110 [survivor count not shown] and 144 % of control [survivor count not shown]
dose: 15.0 mg/kg/injection, schedule: Q01DX015 (ip), vehicle: carboxymethylcellulose (CMC)
  T/C: 122 [survivor count not shown] and 133 % of control [survivor count not shown]
dose: 22.0 mg/kg/injection, schedule: Q01DX001 (ip), vehicle: carboxymethylcellulose (CMC)
  T/C: 118 % of control [survivor count not shown]
dose: 25.0 mg/kg/injection, schedule: Q01DX015 (ip), vehicle: carboxymethylcellulose (CMC)
  T/C: 110 [survivor count not shown] and 111 % of control [survivor count not shown]
dose: 33.0 mg/kg/injection, schedule: Q01DX001 (ip), vehicle: carboxymethylcellulose (CMC)
  T/C: 116 % of control [survivor count not shown]
dose: 50.0 mg/kg/injection, schedule: Q01DX001 (ip), vehicle: carboxymethylcellulose (CMC)
  T/C: 123 [survivor count not shown] and 125 % of control [survivor count not shown]
dose: 75.0 mg/kg/injection, schedule: Q01DX001 (ip), vehicle: carboxymethylcellulose (CMC)
  T/C: 132 % of control [survivor count not shown]
dose: 100.0 mg/kg/injection, schedule: Q01DX001 (ip), vehicle: carboxymethylcellulose (CMC)
  T/C: 107 % of control [survivor count not shown]
dose: 400.0 mg/kg/injection, schedule: Q01DX001 (ip), vehicle: carboxymethylcellulose (CMC)
  T/C: 97 % of control [survivor count not shown]

## CCN(CC)P(=O)(Cl)N(CCCl)CCCl (stereo not drawn)
dose: 100.0 mg/kg/injection, schedule: Q04DX002 (ip), vehicle: DMSO
  T/C: 115 % of control [survivor count not shown]
dose: 200.0 mg/kg/injection, schedule: Q04DX002 (ip), vehicle: DMSO
  T/C: 112 % of control [survivor count not shown]

## Oc1ccc(N(CCCl)CCCl)cc1
dose: 15.0 mg/kg/injection, schedule: Q01DX001 (ip), vehicle: carboxymethylcellulose (CMC)
  T/C: 118 % of control [survivor count not shown]
dose: 30.0 mg/kg/injection, schedule: Q01DX001 (ip), vehicle: carboxymethylcellulose (CMC)
  T/C: 111 % of control [survivor count not shown]

## N#CSCCCl
[1]
  T/C: 97 % of control [survivor count not shown]
[2]
  T/C: 93 % of control [survivor count not shown]

## BrCCN(CCBr)c1ccc2c(c1)Cc1ccccc1-2
dose: 3.12 mg/kg/injection, schedule: Q01DX009 (ip), vehicle: Klucel (hydroxypropylcellulose) (HPC)
  T/C: 162 % of control [survivor count not shown]
[1]
  T/C: 119 % of control [survivor count not shown]
[2]
  T/C: 108 [survivor count not shown] and 113 % of control [survivor count not shown]
dose: 12.5 mg/kg/injection, schedule: Q01DX009 (ip), vehicle: Klucel (hydroxypropylcellulose) (HPC)
  T/C: 111 [survivor count not shown] and 118 % of control [survivor count not shown]
dose: 25.0 mg/kg/injection, schedule: Q01DX009 (ip), vehicle: Klucel (hydroxypropylcellulose) (HPC)
  T/C: 119 [survivor count not shown] and 178 % of control [survivor count not shown]
dose: 50.0 mg/kg/injection, schedule: Q01DX009 (ip), vehicle: Klucel (hydroxypropylcellulose) (HPC)
  T/C: 121 [survivor count not shown] and 131 % of control [survivor count not shown]
dose: 100.0 mg/kg/injection, schedule: Q04DX003 (ip), vehicle: Klucel (hydroxypropylcellulose) (HPC)
  T/C: 126 % of control [survivor count not shown]
dose: 132.0 mg/kg/injection, schedule: Q04DX003 (ip), vehicle: saline with Tween-80
  T/C: 107 % of control [survivor count not shown]
dose: 200.0 mg/kg/injection, schedule: Q04DX003 (ip), vehicle: Klucel (hydroxypropylcellulose) (HPC)
  T/C: 134 % of control [survivor count not shown]
dose: 200.0 mg/kg/injection, schedule: Q04DX003 (ip), vehicle: saline with Tween-80
  T/C: 99 % of control [survivor count not shown]
dose: 300.0 mg/kg/injection, schedule: Q04DX003 (ip), vehicle: saline with Tween-80
  T/C: 93 % of control [survivor count not shown]
dose: 400.0 mg/kg/injection, schedule: Q04DX003 (ip), vehicle: Klucel (hydroxypropylcellulose) (HPC)
  T/C: 130 % of control [survivor count not shown]

## Cc1ccc(NC2(C(N)=O)CCNCC2)cc1
dose: 100.0 mg/kg/injection, schedule: Q01DX009 (ip), vehicle: saline
  T/C: 94 % of control [survivor count not shown]
[3]
  T/C: 96 % of control [survivor count not shown]
dose: 200.0 mg/kg/injection, schedule: Q01DX009 (ip), vehicle: saline
  T/C: 95 % of control [survivor count not shown]
dose: 200.0 mg/kg/injection, schedule: Q04DX003 (ip), vehicle: saline
  T/C: 94 % of control [survivor count not shown]
dose: 400.0 mg/kg/injection, schedule: Q04DX003 (ip), vehicle: saline
  T/C: 94 % of control [survivor count not shown]

## S=P(Cl)(Cl)N(CCCl)CCCl
dose: 6.25 mg/kg/injection, schedule: Q04DX003 (ip), vehicle: saline with Tween-80
  T/C: 97 % of control [survivor count not shown]
dose: 12.5 mg/kg/injection, schedule: Q04DX003 (ip), vehicle: saline with Tween-80
  T/C: 97 % of control [survivor count not shown]
dose: 25.0 mg/kg/injection, schedule: Q04DX003 (ip), vehicle: saline with Tween-80
  T/C: 92 % of control [survivor count not shown]
dose: 50.0 mg/kg/injection, schedule: Q01DX001 (ip), vehicle: saline
  T/C: 112 % of control [survivor count not shown]
dose: 100.0 mg/kg/injection, schedule: Q01DX001 (ip), vehicle: saline
  T/C: 112 % of control [survivor count not shown]
dose: 200.0 mg/kg/injection, schedule: Q01DX001 (ip), vehicle: saline
  T/C: 118 % of control [survivor count not shown]

## CCCCN(CCCl)CCCC
dose: 3.0 mg/kg/injection, schedule: Q01DX009 (ip), vehicle: saline
  T/C: 114 % of control [survivor count not shown]
dose: 6.0 mg/kg/injection, schedule: Q01DX009 (ip), vehicle: saline
  T/C: 121 % of control [survivor count not shown]
dose: 12.0 mg/kg/injection, schedule: Q01DX009 (ip), vehicle: saline
  T/C: 117 % of control [survivor count not shown]
dose: 20.0 mg/kg/injection, schedule: Q04DX003 (ip), vehicle: saline
  T/C: 103 % of control [survivor count not shown]
dose: 25.0 mg/kg/injection, schedule: Q01DX009 (ip), vehicle: saline
  T/C: 90 % of control [survivor count not shown]
dose: 40.0 mg/kg/injection, schedule: Q04DX003 (ip), vehicle: saline
  T/C: 113 % of control [survivor count not shown]
dose: 80.0 mg/kg/injection, schedule: Q04DX003 (ip), vehicle: saline
  T/C: 104 % of control [survivor count not shown]
[3]
  T/C: 105 % of control [survivor count not shown]
